The target in experiment [1] is fusion protein of NMDA receptor/2B subunit with GST (human) (UniProt Q13224). The experiment in a line: Overlay method, legend of FIG. 8.
Experiment [2] has the same target. The experiment in a line: Overlay method (far-Western): His-Protein-X extract on blotted GST-NMDA receptor/2B subunit, anti-His detection.

Protein sequences, listed by entry. Tags and fused reporters are not part of them. Residues count along the entry.
UniProt Q13224, residues 27-1484: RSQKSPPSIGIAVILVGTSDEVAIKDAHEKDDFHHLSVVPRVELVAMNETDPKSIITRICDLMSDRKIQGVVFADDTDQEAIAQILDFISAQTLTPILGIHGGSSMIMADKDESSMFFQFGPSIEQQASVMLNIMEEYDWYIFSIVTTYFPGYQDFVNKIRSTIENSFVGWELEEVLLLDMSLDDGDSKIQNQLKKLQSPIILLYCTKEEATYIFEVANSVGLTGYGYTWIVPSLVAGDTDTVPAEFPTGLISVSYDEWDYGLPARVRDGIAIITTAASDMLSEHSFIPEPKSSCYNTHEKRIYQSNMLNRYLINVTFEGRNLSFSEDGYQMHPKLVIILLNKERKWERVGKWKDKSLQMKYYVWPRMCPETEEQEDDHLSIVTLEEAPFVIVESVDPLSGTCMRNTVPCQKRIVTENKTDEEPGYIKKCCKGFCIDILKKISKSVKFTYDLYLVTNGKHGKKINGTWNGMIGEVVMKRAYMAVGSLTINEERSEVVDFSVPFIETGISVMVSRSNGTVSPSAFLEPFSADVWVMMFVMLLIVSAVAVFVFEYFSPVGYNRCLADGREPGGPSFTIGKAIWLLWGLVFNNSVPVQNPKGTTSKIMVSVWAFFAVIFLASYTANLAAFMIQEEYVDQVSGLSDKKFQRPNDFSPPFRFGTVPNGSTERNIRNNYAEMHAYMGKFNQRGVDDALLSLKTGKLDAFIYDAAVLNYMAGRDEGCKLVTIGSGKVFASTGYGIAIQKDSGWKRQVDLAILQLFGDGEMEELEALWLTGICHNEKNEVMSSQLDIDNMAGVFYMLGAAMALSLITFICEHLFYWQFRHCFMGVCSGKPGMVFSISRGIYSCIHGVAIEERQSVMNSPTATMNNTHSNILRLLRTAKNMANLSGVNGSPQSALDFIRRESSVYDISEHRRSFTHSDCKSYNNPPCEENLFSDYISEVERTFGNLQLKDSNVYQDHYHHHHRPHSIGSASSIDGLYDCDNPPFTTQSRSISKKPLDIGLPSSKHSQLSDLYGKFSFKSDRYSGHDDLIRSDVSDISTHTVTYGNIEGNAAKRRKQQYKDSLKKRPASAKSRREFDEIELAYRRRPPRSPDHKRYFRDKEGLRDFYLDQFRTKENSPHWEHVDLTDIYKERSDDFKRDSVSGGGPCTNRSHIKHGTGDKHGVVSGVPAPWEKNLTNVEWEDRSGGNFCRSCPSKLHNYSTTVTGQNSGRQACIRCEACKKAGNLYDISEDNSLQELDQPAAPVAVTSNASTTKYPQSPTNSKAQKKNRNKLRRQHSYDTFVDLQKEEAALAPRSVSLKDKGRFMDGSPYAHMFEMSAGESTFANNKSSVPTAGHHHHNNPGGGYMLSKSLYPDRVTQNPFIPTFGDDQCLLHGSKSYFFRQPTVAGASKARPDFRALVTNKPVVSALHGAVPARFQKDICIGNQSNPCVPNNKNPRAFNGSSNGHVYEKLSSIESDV

No constants are given. Whether binding was seen depends on the method and setting. Some binding calls cover weakened binding; strength is not graded here. Sequences can lack the tags named with a protein.

B1: fusion protein of Protein-X (novel PSD, clone hj02537) with a 6x His-tag (protein, not shown: small tags and cut ends)
chain: MPALSTGSGSDTGLYELLAALPAQLQPHVDSQEDLTFLWDMFGEKSLHSLVKIHEKLHYYEKQSPVPILHGAAALADDLAEELQNKPLNSEIRELLKLLSKPNVKALLSVHDTVAQKNYDPVLPPMPEDIDDEEDSVKIIRLVKNREPLGATIKKDEQTGAIIVARIMRGGAADRSGLIHVGDELREVNGIPVEDKRPEEIIQILAQSQGAITFKIIPGSKEETPSKEGKMFIKALFDYNPNEDKAIPCKEAGLSFKKGDILQIMSQDDATWWQAKHEADANPRAGLIPSKHFQERRLALRRPEILVQPLKVSNRKSSGFRRSFRLSRKDKKTNKSMYECKKSDQYDTADVPTYEEVTPYRRQTNEKYRLVVLVGPVGVGLNELKRKLLISDTQHYGVTVPHTTRARRSQESDGVEYIFISKHLFETDVQNNKFIEYGEYKNNYYGTSIDSVRSVLAKNKVCLLDVQPHTVKHLRTLEFKPYVIFIKPPSIERLRETRKNAKIISSRDDQGAAKPFTEEDFQEMIKSAQIMESQYGHLFDKIIINDDLTVAFNELKTTFDKLETETHWVPVSWLHS
Turning to B1, the binding entry in experiment [1] and in experiment [2] was “binds” in each case.

For the origin of these results see patent US20060252677A1.
